Test [1] deals with T1, caveolin-3 (recombinant, expressed from pcDNA-Cav-3) (Homo sapiens (Human)) (UniProt P56539).
T1 sequence: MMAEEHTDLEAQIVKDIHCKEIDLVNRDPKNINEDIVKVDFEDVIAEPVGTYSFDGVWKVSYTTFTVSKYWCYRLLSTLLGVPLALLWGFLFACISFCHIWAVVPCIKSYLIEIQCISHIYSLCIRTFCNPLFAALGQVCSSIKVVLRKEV
Kind of test: co-immunoprecipitation with anti-caveolin-3 mAb from lysate of co-transfected CHO cells.

Test [2] deals with T2, caveolin-3 (endogenous, mouse gastrocnemius skeletal muscle) (mouse) (UniProt P51637).
T2 sequence (looked up): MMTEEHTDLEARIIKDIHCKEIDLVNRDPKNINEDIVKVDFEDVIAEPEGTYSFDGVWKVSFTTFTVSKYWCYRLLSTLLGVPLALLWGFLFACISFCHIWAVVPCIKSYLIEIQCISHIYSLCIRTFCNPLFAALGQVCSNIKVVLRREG
The experiment in a line: co-immunoprecipitation from whole cell lysate of mouse gastrocnemius skeletal muscle (anti-MG53 polyclonal, anti-caveolin-3 mAb).

These are yes or no findings as the source states them, for the method shown. In cells and extracts the contact can be indirect. Some entries that bind do so weakly or less than the wild type. For part of these data: Tags and fused reporters may be left off the sequences shown.

B1: GFP-TRIM (GFP fused to the amino-terminus of the TRIM portion of MG53, a.a. 1-287) (protein, not shown: large carriers)
chain: MSAAPGLLRQELSCPLCLQLFDAPVTAECGHSFCRACLIRVAGEPAADGTVACPCCQAPTRPQALSTNLQLSRLVEGLAQVPQGHCEEHLDPLSIYCEQDRTLVCGVCASLGSHRGHRLLPAAEAQARLKTQLPQQKMQLQEACMRKEKTVAVLEHQLVEVEETVRQFRGAVGEQLGKMRMFLAALESSLDREAERVRGDAGVALRRELSSLNSYLEQLRQMEKVLEEVADKPQTEFLMKFCLVTSRLQKILSESPPPARLDIQLPVISDDFKFQVWKKMFRALMPA
Consider B1, for which, in test [1], the binding result is reported as “binds”.

B2: mouse MG53 (mitsugumin53) (protein)
chain: MSAAPGLLRQELSCPLCLQLFDAPVTAECGHSFCRACLIRVAGEPAADGTVACPCCQAPTRPQALSTNLQLSRLVEGLAQVPQGHCEEHLDPLSIYCEQDRTLVCGVCASLGSHRGHRLLPAAEAQARLKTQLPQQKMQLQEACMRKEKTVAVLEHQLVEVEETVRQFRGAVGEQLGKMRMFLAALESSLDREAERVRGDAGVALRRELSSLNSYLEQLRQMEKVLEEVADKPQTEFLMKFCLVTSRLQKILSESPPPARLDIQLPVISDDFKFQVWKKMFRALMPALEELTFDPSSAHPSLVVSSSGRRVECSDQKAPPAGEDTRQFDKAVAVVAQQLLSQGEHYWEVEVGDKPRWALGVMAADASRRGRLHAVPSQGLWLLGLRDGKILEAHVEAKEPRALRTPERPPARIGLYLSFADGVLAFYDASNPDVLTPIFSFHERLPGPVYPIFDVCWHDKGKNAQPLLLVGPEQEQA
Regarding B2, the binding entry in test [2] is reported as “binds”.

B3: GFP-MG53 (GFP fused to the amino-terminus of full-length mouse MG53) (protein, not shown: large carriers)
chain: MSAAPGLLRQELSCPLCLQLFDAPVTAECGHSFCRACLIRVAGEPAADGTVACPCCQAPTRPQALSTNLQLSRLVEGLAQVPQGHCEEHLDPLSIYCEQDRTLVCGVCASLGSHRGHRLLPAAEAQARLKTQLPQQKMQLQEACMRKEKTVAVLEHQLVEVEETVRQFRGAVGEQLGKMRMFLAALESSLDREAERVRGDAGVALRRELSSLNSYLEQLRQMEKVLEEVADKPQTEFLMKFCLVTSRLQKILSESPPPARLDIQLPVISDDFKFQVWKKMFRALMPALEELTFDPSSAHPSLVVSSSGRRVECSDQKAPPAGEDTRQFDKAVAVVAQQLLSQGEHYWEVEVGDKPRWALGVMAADASRRGRLHAVPSQGLWLLGLRDGKILEAHVEAKEPRALRTPERPPARIGLYLSFADGVLAFYDASNPDVLTPIFSFHERLPGPVYPIFDVCWHDKGKNAQPLLLVGPEQEQA
Consider B3, for which, in test [1], the binding result was “binds”.

The values above are taken from US20120309051A1 (UNIVERSITY OF MEDICINE AND DENTISTRY OF NEW JERSEY, published 2012).
